The list shows a part of the results.

Amino acid sequences for entries named in this document (tags omitted). A change or cut given only in a name is not applied to a line headed by its entry.
UniProt P50552: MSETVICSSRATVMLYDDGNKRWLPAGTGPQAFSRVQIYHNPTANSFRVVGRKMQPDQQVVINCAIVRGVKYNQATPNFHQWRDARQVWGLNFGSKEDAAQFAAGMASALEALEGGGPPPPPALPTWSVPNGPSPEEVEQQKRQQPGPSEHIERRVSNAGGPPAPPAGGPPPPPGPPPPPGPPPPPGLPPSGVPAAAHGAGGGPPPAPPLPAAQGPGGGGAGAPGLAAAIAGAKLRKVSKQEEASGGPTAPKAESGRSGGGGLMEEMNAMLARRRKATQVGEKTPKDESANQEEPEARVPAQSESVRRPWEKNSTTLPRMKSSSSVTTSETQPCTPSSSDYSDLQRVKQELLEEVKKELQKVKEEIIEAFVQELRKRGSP
UniProt Q9NZ43: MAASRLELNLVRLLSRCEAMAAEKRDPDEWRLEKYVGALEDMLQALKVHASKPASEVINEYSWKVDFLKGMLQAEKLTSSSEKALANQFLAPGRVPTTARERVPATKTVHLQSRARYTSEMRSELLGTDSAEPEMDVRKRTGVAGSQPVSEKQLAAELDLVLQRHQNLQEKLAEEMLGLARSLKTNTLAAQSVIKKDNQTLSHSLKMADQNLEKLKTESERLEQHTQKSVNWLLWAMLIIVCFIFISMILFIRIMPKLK
UniProt Q15386: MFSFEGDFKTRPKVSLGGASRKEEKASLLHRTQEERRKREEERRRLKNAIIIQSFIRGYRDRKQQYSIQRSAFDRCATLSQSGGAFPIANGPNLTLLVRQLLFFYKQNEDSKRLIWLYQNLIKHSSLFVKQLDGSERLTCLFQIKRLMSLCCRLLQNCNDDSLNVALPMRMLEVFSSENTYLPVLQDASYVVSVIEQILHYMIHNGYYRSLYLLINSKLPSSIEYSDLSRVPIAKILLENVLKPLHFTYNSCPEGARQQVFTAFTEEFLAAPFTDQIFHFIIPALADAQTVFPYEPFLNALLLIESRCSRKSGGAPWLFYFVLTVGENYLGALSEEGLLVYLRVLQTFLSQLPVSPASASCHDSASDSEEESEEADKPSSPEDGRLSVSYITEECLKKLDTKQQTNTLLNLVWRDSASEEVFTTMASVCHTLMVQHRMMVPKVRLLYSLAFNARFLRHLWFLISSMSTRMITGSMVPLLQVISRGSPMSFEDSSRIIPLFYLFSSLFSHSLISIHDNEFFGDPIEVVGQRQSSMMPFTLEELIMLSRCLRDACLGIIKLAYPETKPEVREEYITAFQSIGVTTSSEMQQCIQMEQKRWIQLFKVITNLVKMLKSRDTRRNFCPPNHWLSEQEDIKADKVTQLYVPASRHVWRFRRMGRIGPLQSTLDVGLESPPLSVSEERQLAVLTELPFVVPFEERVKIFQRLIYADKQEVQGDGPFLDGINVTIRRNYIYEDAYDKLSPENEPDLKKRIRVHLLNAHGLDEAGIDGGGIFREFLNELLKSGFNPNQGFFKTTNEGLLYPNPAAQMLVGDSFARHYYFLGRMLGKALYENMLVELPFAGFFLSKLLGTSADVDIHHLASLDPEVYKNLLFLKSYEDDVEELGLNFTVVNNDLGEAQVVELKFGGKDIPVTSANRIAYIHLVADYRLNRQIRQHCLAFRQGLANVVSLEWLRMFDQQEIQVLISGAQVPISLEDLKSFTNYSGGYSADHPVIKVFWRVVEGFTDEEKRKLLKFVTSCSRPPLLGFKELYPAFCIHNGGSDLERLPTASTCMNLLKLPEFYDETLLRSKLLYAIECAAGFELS
UniProt O95155, whole entry, looked up: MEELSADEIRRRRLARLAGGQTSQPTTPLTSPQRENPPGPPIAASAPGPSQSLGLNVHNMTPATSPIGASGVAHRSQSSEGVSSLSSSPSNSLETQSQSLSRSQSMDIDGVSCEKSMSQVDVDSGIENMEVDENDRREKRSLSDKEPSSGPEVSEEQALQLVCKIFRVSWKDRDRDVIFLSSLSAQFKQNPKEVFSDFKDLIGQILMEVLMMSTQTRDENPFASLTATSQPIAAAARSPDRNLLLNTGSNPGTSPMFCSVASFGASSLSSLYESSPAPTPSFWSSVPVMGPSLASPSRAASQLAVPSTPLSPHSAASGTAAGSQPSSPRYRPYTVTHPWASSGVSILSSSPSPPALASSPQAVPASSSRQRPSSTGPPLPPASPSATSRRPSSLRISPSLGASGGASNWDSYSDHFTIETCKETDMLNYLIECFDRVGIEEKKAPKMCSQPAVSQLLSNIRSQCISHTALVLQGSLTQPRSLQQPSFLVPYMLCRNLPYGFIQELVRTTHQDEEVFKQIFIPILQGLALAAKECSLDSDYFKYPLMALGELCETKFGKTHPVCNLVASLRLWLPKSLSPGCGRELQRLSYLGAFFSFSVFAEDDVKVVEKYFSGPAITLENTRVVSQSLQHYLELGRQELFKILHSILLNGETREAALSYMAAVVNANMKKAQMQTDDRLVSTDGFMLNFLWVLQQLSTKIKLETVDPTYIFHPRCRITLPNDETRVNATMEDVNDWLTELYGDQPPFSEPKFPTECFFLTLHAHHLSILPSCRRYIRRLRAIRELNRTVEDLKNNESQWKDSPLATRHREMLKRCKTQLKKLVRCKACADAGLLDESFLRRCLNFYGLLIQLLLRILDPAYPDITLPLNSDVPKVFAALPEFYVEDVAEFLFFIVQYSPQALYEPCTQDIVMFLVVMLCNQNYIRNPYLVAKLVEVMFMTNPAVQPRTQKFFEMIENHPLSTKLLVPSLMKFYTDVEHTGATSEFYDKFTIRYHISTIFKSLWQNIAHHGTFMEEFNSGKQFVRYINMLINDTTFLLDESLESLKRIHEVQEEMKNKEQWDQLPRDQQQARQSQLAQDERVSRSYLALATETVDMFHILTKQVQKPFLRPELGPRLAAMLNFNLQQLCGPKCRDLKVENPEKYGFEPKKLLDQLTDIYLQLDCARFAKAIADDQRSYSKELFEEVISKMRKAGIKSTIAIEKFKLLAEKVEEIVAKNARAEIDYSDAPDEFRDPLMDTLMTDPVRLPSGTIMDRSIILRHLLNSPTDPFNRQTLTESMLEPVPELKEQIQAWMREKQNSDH
UniProt Q9NQZ2: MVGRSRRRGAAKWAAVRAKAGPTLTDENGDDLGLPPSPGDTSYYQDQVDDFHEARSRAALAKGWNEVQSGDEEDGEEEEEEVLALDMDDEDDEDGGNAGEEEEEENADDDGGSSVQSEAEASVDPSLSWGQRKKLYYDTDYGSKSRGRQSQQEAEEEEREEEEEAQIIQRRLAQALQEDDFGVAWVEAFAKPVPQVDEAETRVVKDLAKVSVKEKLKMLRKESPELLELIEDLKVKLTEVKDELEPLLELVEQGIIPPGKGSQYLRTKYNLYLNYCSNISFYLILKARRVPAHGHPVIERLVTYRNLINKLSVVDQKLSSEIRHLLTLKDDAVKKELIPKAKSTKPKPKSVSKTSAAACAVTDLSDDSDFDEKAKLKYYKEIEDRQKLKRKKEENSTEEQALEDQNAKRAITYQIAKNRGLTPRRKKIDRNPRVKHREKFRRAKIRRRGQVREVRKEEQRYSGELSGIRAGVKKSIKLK
UniProt P61960, whole entry, looked up: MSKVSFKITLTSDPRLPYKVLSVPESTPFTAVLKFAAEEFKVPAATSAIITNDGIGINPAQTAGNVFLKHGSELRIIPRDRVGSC
UniProt Q9P0L0: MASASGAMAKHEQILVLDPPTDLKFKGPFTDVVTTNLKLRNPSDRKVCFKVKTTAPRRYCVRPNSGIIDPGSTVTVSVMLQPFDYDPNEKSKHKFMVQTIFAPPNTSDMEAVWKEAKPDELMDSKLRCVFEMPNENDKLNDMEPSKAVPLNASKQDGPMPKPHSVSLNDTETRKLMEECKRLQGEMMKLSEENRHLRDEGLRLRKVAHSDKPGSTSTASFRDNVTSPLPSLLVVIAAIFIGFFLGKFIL
UniProt Q9UPU5: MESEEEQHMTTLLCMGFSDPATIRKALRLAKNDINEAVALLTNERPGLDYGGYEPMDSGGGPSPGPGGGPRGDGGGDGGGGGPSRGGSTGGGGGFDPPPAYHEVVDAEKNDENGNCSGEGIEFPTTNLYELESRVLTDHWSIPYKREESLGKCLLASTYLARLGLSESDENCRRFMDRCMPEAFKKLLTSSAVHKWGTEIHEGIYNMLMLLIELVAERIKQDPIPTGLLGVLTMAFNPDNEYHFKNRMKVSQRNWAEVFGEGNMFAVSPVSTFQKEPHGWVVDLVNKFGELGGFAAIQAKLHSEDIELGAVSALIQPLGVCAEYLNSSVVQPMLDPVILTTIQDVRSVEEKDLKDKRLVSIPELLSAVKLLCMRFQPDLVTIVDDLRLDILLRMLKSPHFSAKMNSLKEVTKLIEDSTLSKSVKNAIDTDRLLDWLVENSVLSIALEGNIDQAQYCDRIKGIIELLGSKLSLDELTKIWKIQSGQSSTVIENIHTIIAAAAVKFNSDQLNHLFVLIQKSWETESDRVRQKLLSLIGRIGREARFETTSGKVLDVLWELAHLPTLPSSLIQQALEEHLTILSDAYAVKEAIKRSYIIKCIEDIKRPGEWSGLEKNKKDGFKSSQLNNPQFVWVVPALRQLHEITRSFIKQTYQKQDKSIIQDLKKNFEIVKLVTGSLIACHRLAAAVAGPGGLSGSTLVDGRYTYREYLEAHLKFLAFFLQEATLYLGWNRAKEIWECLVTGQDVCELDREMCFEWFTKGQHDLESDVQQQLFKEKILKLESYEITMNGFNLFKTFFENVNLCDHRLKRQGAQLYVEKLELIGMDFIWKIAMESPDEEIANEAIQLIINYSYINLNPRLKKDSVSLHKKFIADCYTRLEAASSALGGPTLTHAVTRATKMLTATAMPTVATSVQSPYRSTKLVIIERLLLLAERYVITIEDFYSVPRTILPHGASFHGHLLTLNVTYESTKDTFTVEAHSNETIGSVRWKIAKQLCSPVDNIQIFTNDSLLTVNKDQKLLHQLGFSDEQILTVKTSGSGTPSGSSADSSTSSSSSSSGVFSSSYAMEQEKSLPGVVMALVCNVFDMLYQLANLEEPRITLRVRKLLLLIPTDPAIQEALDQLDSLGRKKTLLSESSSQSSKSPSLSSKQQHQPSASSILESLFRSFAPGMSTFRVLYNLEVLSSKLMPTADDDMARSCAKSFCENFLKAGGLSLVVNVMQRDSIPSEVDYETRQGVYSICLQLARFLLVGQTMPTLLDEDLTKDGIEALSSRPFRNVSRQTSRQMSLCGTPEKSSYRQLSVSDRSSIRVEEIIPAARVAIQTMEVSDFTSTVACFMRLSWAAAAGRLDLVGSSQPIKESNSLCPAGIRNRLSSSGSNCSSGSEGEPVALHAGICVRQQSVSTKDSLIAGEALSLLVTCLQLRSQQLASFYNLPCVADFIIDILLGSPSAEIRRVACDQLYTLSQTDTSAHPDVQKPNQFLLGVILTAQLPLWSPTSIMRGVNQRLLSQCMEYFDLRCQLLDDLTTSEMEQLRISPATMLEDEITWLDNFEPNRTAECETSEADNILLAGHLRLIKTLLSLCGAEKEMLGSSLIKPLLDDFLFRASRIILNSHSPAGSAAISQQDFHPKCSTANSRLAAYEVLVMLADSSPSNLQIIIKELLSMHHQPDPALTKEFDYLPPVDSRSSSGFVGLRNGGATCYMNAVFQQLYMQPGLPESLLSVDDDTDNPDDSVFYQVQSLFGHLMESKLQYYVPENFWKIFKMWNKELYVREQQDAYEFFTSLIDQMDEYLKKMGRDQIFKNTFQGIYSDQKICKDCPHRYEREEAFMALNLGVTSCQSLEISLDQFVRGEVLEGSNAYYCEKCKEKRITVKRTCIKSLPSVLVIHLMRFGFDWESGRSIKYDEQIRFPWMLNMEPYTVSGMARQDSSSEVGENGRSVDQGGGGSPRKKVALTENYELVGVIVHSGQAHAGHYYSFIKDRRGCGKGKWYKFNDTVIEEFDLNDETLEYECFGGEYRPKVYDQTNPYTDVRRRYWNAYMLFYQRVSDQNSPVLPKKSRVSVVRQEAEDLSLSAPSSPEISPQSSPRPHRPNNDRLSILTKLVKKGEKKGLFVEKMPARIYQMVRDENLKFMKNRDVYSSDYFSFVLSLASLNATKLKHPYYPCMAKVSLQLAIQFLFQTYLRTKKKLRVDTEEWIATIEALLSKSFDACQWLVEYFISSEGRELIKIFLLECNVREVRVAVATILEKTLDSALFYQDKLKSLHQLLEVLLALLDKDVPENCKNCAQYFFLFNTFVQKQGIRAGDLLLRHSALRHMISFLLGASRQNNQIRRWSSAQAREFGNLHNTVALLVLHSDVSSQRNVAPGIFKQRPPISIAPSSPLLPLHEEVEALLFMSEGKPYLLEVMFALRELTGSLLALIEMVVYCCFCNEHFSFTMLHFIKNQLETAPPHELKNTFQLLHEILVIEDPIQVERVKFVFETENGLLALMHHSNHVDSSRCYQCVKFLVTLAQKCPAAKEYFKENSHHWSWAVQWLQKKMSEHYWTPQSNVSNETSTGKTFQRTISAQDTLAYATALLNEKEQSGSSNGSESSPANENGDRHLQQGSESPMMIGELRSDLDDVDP

Compound in this experiment: C#Cc1cccc(Nc2ncnc3cc(OCCOC)c(OCCOC)cc23)c1 [erlotinib]
Description: log2 fold change, soluble protein after heating vs DMSO (PISA); higher = thermal stabilisation; K562 cells, 10 uM, 30 min; active = over 0.2 and 3.5 SD of the protein, either way, in both replicates (recomputed). A digest of the protocol:
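K562 cells at 2×10^6 cells/mL were treated for 30 min with 10 μM compound, and aliquots were heated for 3 min over 48°C-58°C before pooling. Extraction used PBS with 0.5% NP-40 at 4°C, and soluble protein was the supernatant after 21,000xg for 90 min, measured by TMTpro 16plex LC-MS/MS with channel sums equalised. Thermal stability values, relative to control samples and from duplicates, are log2 fold changes.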
On to VASP (UniProt P50552), for which the log2 fold change was inactive: 0.164. In the case of UCK1 (UniProt Q9HA47) it was inactive: 0.004; in that of USE1 (UniProt Q9NZ43), inactive: 0.018; in that of UBE3C (UniProt Q15386), inactive: 0.007. With UBE4B isoform 4 (UniProt O95155) the figure was inactive: -0.01. For UBR7 (UniProt Q8N806), the log2 fold change is inactive: -0.048. In the case of UBQLN2 (UniProt Q9UHD9) it was inactive: -0.002; in that of UHRF1BP1 (UniProt Q6BDS2), inactive: -0.018; in that of UTP3 (UniProt Q9NQZ2), inactive: -0.098.

For the target USP30 (UniProt Q70CQ3), the log2 fold change was inactive: -0.147. In the case of UFM1 (UniProt P61960) it was inactive: 0.026; in that of USP7 (UniProt Q93009), inactive: 0.089; in that of UGGT1 (UniProt Q9NYU2), inactive: -0.027.

Take VAPA isoform 2 (UniProt Q9P0L0): the log2 fold change is inactive: 0.021. Regarding VARS2, A0A0G2JL52, the log2 fold change is inactive: 0.012. With USP24 (UniProt Q9UPU5) the figure was inactive: 0.126.

For the origin of these results see the supplement of paper PMC10849652.
